Results taken from PubChem BioAssay AID2685 (National Center for Advancing Translational Sciences (NCATS), 2010).
Among all 320,000 compounds or so, about 2,100 (0.66%) were called active. The shares of active, inactive and inconclusive entries below differ from those in the screen. Calls follow the shape of the dose curve; as a rule, active = well fitted inhibition curve with a large enough effect in the signal ratio, with a control signal flat (not every such curve was filed as active); inconclusive = small, poorly fitted or top-dose-only effect, or effect the other way, or a change in a side signal; inactive = flat fitted curve, though single readings scatter; the % refers to the signal ratio. Where the call is inconclusive, the potency comes from a doubtful curve fit.

assay: qHTS Assay for Lipid Storage Modulators in Drosophila S3 Cells; conditions: BODIPY lipid droplet fluorescence, 18-24 h, cells fed with added oleic acid; lipid storage change, negative = inhibition: at 46.1 µM (top of the series) unless noted
Outline: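 Drosophila S3 cells got compounds at several concentrations plus oleic acid (400 uM solution). Laser-scanning cytometry with 488 nm excitation read lipid droplets at 500-530 nm and cells at 575-640 nm. Percent activity was relative to 20 uM Triacsin C.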
% is scaled to controls: 0 for no effect and ±100 for the full control effect; potency is read from the fitted curve at half-maximal effect.

SMILES | lipid storage change, negative = inhibition | Potency
COc1ccc(Cl)cc1C(=O)NCc1cn(C)nc1C | inconclusive: 5.48% | –
Cc1ccccc1OCC(=O)OC(C(=O)c1ccccc1)c1ccccc1 (stereo not given) | inconclusive: -12.5% | –
Cc1[nH]c2ccc(-c3n[nH]c(=S)n3-c3ccc(Br)cc3)cc2c1C | inconclusive: -13.1% | –
O=C(Nc1cccc(C(F)(F)F)c1)c1cccc(NS(=O)(=O)c2ccc(O)c(C(=O)O)c2)c1 | inconclusive: -68.5% | –
Cc1c(C2CC(=O)N(c3ccccc3)C2=O)[nH]n(-c2ccccc2)c1=O (stereo not given) | – | inconclusive: 29.1 µM [activator, single point]
CCOc1ccc(Oc2cc(NC(=O)c3ccco3)cc([N+](=O)[O-])c2)cc1 | – | inconclusive: 23.1 µM [falling, partial curve]
Cc1nc2ccc([N+](=O)[O-])cc2c(=O)n1Cc1ccccc1Br | – | inconclusive: 29.1 µM [falling, single point]
CCOC(=O)C1(S(=O)(=O)c2ccccc2)CCN(Cc2ccccc2)CC1 | inconclusive: -138% | –
Cc1ccc(S(=O)(=O)N2CCN=C2SC(C)c2ccccc2)cc1 (stereo not given) | inconclusive: 8.9% | –
Cc1ccc(S(=O)(=O)N2[C@@H](c3cccc(Cl)c3)C(C(=O)O)=CC[C@H]2c2cccs2)cc1 | inconclusive: 1.08% | –
O=C(C[n+]1ccc(/C=N/O)cc1)NC(=O)Nc1ccccc1 | – | inconclusive: 0.82 µM [activator, partial curve]
Cc1nc(NC(=O)C2CC2)sc1C(=O)N(C)C | inconclusive: 0.351% | –
Cc1occc1-c1nnc(SCC(=O)Nc2nccs2)n1Cc1ccco1 | inconclusive: 18.4% | –
O=C(COc1ccc2ccccc2c1)NCCn1ccc2ccccc21 | inconclusive: 30.1% | –
CCOC(=O)N1CCN(C(=O)Cn2nc(C)n3nc(-c4ccc(OC)cc4)cc3c2=O)CC1 | inconclusive: 14% | –
COc1ccc(S(=O)(=O)N(C(C)=O)c2ccc3oc(=O)sc3c2)cc1 | inconclusive: 24.6% | –
C=CCN1c2ccccc2[C@]23C[C@@H](C(=O)OC)N(C(=O)C4CCC4)C2=NC(C(=O)OC)=C(C(=O)OC)[C@H]13 | inconclusive: 5.76% | –
CCN(CC)S(=O)(=O)c1ccc(C(=O)OCCNC(=O)c2cccnc2)cc1 | inconclusive: -8.17% | –
O=C(CN1C2CCC1CC(NC(=O)Nc1ccccc1)C2)NCc1ccco1 (stereo not given) | – | inconclusive: 3.26 µM [activator, partial curve]
O=S(=O)(NCc1ccc2c(c1)OCO2)c1cccc(F)c1 | inconclusive: -60.6% | –
CCC(CC)NC(=O)Cc1ccc(S(=O)(=O)N2CCOCC2)s1 | inconclusive: 9.92% | –
CCNC(=O)NC(=O)CSc1cccc(C(F)(F)F)c1 | – | inconclusive: 0.731 µM [activator, full curve, poor fit]
Cc1cc(CNC(=O)CC2C(=O)NCCN2Cc2ccc(-c3ccccc3)cc2)nn1C (stereo not given) | inconclusive: 10.6% | –
C=CCNC(=O)COC(=O)c1ccc(Cl)c(S(N)(=O)=O)c1 | inconclusive: -19.2% | –
O=C(CCCn1c(=O)c2cccn2c2cccnc21)N1CCN(c2ccccc2F)CC1 | inconclusive: 39.3% | –

SMILES | lipid storage change, negative = inhibition | Potency
COc1ccc(N2CCN(c3ccc4nnc(CCC(=O)Nc5ccc(C)cc5)n4n3)CC2)cc1 | inconclusive: 14.5% | –
CC(=O)Nc1ccc(S(=O)(=O)N(C)CC(=O)OCC(=O)N2CCCC2=O)cc1 | inconclusive: -30.6% [at 0.0737 µM] | –
O=C(O)c1ccc(S(=O)(=O)N[C@@H](Cc2ccc(O)cc2)C(=O)O)cc1 | inconclusive: 13.2% | –
O=C(Cc1cccc2ccccc12)N/N=C1\CCCc2ccccc21 | inconclusive: 354% | –
Cc1nc(NCCc2ccc(F)cc2)c(C#N)c(C)c1[N+](=O)[O-] | – | inconclusive: 18.4 µM [falling, single point]
CCN(CC)C(=O)N1c2ccccc2Sc2ccccc21 | inconclusive: 33.7% | –
O=C1Nc2ccccc2CCC1Sc1nnc(-c2ccc(Cl)cc2)s1 (stereo not given) | inconclusive: -21% | –
Cc1c(C)c2ccc(OC(C)C(=O)NCCc3c[nH]c4ccccc34)cc2oc1=O (stereo not given) | – | inconclusive: 0.0041 µM [falling, full curve, poor fit]
Cn1c(SCC(=O)N2CCN(c3cccc(Cl)c3)CC2)nnc1-c1ccncc1 | inconclusive: -10.3% | –
CN(C(=O)C12CC3CC(CC(C3)C1)C2)C1CCS(=O)(=O)C1 (stereo not given) | inconclusive: -35.5% | –
Cc1cc(C)nc(NC(=O)c2ccc(C)c([N+](=O)[O-])c2)n1 | inconclusive: 37.3% | –
COc1ccccc1N(C(=O)c1snc(C(N)=O)c1N)C(C(=O)NC1CCCC1)c1ccco1 (stereo not given) | inconclusive: 25.5% | –
O=C(CSc1ncnc2c1cnn2-c1ccccc1)NCC1CCCO1 (stereo not given) | – | inconclusive: 6.51 µM [falling, single point]
Cc1cc(C(=O)CSc2nnc(-c3ccc(F)cc3)o2)c(C)n1CC1COc2ccccc2O1 (stereo not given) | inconclusive: 30.2% | –
COc1ccc(CC(=O)NCCS(=O)(=O)N2CCN(c3ccc(F)cc3)CC2)cc1OC | inconclusive: -125% | –
O=C(CNC(=O)c1ccccc1)Nc1ccsc1C(=O)O | inconclusive: -7.76% | –
COc1ccc(/C=N/NC(=O)c2ccc(NC(=O)c3cccc([N+](=O)[O-])c3)cc2)c(C(=O)O)c1OC | – | inconclusive: 20.6 µM [activator, partial curve, poor fit]
CCN=C1S/C(=C\c2ccc(N3CCOCC3)cc2C)C(=O)N1CC | inconclusive: -2.63% | –
Nc1ccc(OCC(O)C[n+]2ccc(CCS(=O)(=O)[O-])cc2)cc1 (stereo not given) | inconclusive: -46% | –
COc1ccc(CCN2C(=O)/C(=C\c3ccco3)SC2=S)cc1OC | inactive | –
O=C(c1ccc([N+](=O)[O-])o1)N1CCN(Cc2ccccc2)CC1 | – | active: 25.9 µM
CCNC(=S)NNC(=O)c1cc(-c2ccc(OC)cc2)nc2ccccc12 | inconclusive: 38.8% | –
CC1(C)CC(=O)C2=C(C1)Nc1ccccc1NC2c1ccc(F)cc1 (stereo not given) | inconclusive: 16.9% | –
CCOc1ccc(NC(=O)N2CCCC2C(=O)NCc2ccco2)cc1 (stereo not given) | – | inconclusive: 0.146 µM [activator, full curve]
CCOc1cccc(C(=O)Nc2cc(C)ccc2NC(=O)c2ccco2)c1 | – | inconclusive: 16.4 µM [activator, single point]

SMILES | lipid storage change, negative = inhibition | Potency
O=C(N/N=C/C1CC2CCC1C2)C1CC1 (stereo not given) | – | inconclusive: 0.651 µM [activator, full curve]
Cc1ccc(C(=O)N/C(=C/c2cccs2)C(=O)NCCc2c[nH]c3ccccc23)cc1 | inconclusive: -1.02% | –
CN(c1ccccc1)S(=O)(=O)c1cccc(NC(=O)CSc2ncc(C(F)(F)F)cc2Cl)c1 | – | inconclusive: 18.4 µM [falling, single point]
COc1ccc(C2Nc3ccccc3C(=O)N2NS(C)(=O)=O)cc1OC (stereo not given) | inconclusive: -3.53% | –
CCOC(=O)C1CCCN(C(=O)CN2C(=O)COc3ccc(C(C)(C)C)cc32)C1 (stereo not given) | inconclusive: -35.4% | –
CCOC(=O)c1ccc(NC(=O)Cn2ncc(Cl)c(Cl)c2=O)cc1 | inconclusive: -100% | –
O=C(O)CC1S/C(=N/N=C/c2ccc(-c3ccc(Cl)cc3[N+](=O)[O-])o2)NC1=O (stereo not given) | inconclusive: 113% | –
CC(C)(C)Nc1nc(Cl)nc(NCc2ccccc2)n1 | – | inconclusive: 4.61 µM [activator, full curve, poor fit]
O=C1CCC/C(=N\NC(=O)c2ccc(CSc3cccc4cccnc34)cc2)C1 | inconclusive: -72.9% | –
C/C(=N\Nc1nc(C)cc(-c2ccccc2)n1)c1ccc(O)cc1 | – | inconclusive: 20.6 µM [falling, single point]
Cc1coc2c1c(C)cc1oc(=O)c(CC(=O)NCCCN3CCCC3=O)c(C)c12 | – | inconclusive: 5.8 µM [falling, partial curve, poor fit]
CSc1ccc(/C=C/C(=O)c2ccc(NC(=O)Cc3ccccc3)cc2)cc1 | – | inconclusive: 18.4 µM [falling, single point]
COc1ccc(NC(=O)C2CCCN(S(=O)(=O)c3ccc4c(c3)oc(=O)n4C)C2)cc1OC (stereo not given) | – | inconclusive: 0.116 µM [rising, full curve, poor fit]
CC1=CC(=C(C#N)C#N)C=C(C)N1CCN1CCN(C(=O)Nc2cccc(Cl)c2)CC1 | inconclusive: -23.4% | –
CCC(=O)NC(=S)NNC(=O)c1ccccc1[N+](=O)[O-] | inconclusive: 6.37% | –
Cc1ccc(-c2nn(C)c(=O)c3ccccc23)cc1CN1CCOCC1 | inconclusive: 29.9% | –
CCOc1ccc(NC(=S)N2CCC(c3nc4ccccc4[nH]3)CC2)cc1 | inactive | –
Clc1ccc(-n2cccc2)cn1 | inconclusive: 1.04% | –
COc1ccc(C(=O)NNC(=O)COc2ccc(Cl)cc2C)cc1S(=O)(=O)N1CCOCC1 | inconclusive | –
CN(C)C(=O)c1ccccc1-c1ccccc1 | inconclusive: -47.6% | –
Cc1ccc(Nc2nc(C)cc(C)c2C(N)=O)cc1 | – | inconclusive: 8.2 µM [rising, partial curve]
COc1ccccc1NS(=O)(=O)c1ccc(NC(=O)Cc2cccs2)cc1 | inconclusive: 28.7% | –
CCc1ccc(Nc2ncnc3nc[nH]c23)cc1 | – | inconclusive: 6.51 µM [activator, partial curve, poor fit]
O=C(CCNS(=O)(=O)c1ccccc1)NNC(=O)COc1ccc(Cl)cc1 | inconclusive: -67.1% | –
COCCCNc1nc(SCc2ccccc2)nc2sc3c(c12)CCC3 | inconclusive: -10.8% | –

Single records, from the list above. Values in the order: lipid storage change, negative = inhibition	Potency
O=C(O)CC1S/C(=N/N=C/c2ccc(-c3ccc(Cl)cc3[N+](=O)[O-])o2)NC1=O (stereo not given) is listed as inconclusive: 113%	–
CN(c1ccccc1)S(=O)(=O)c1cccc(NC(=O)CSc2ncc(C(F)(F)F)cc2Cl)c1 is listed as –	inconclusive: 18.4 µM [falling, single point]
COCCCNc1nc(SCc2ccccc2)nc2sc3c(c12)CCC3 is listed as inconclusive: -10.8%	–
